Reference: PubChem BioAssay AID540275 (National Center for Advancing Translational Sciences (NCATS), 2011)
Values joined by “and” are separate entries in the source; they are usually repeats but may differ in a detail not shown here. Equal values may be shown once. Among all 320,000 compounds or so, about 620 (0.19%) were called active. This list was built around the results that the source calls inconclusive (neither active nor inactive); the mix of calls is not that of the screen. No stated cut-off is given here; in the data, active means activation above about 80%; inconclusive means between about 30% and that limit; inactive means weaker than that.

Chains of the proteins cited; added tags and fusions are not shown.
UniProt Q8NER1, whole entry, looked up: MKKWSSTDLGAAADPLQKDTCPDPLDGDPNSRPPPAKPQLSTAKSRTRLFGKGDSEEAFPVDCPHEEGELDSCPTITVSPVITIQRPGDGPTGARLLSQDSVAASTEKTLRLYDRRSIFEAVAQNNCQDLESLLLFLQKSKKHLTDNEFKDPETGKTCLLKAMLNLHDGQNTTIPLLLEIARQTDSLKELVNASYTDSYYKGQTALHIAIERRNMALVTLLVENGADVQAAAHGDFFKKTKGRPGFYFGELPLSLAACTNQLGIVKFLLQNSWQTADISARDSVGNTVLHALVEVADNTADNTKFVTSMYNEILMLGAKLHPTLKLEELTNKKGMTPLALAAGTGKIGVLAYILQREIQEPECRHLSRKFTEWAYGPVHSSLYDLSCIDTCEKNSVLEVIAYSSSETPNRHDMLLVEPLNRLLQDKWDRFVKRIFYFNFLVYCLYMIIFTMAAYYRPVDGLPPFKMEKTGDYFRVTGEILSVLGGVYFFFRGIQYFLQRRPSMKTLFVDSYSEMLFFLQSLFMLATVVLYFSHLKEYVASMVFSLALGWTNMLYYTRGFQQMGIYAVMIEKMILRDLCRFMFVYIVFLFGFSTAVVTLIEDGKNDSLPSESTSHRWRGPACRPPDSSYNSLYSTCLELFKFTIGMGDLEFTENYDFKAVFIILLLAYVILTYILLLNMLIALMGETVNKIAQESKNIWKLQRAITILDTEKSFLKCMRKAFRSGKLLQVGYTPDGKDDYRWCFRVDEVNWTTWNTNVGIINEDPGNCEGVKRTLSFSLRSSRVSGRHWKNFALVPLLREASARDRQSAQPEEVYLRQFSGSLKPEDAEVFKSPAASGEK

What follows are compounds tested against Transient receptor potential cation channel subfamily V member 1 (Homo sapiens) (UniProt Q8NER1) (assay: HTS Assay for Compounds that Act as Agonists of the Vanilloid Receptor 1). Conditions: TRPV1-expressing cells, Fluo-8 calcium influx, agonist mode; at 8.33 µM; stronger effect = higher value.
Procedure, shortened: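 Fluo-8 calcium influx in TRPV1-expressing cells, kinetic read (ex 480/em 520 nm). Compound added and read 3 min for agonist activity, followed by capsaicin at EC20 final and 2 min further read for enhancement.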
Further: 0% is about no effect.

Row | SMILES | activation
1 | Cc1ccc(-c2nc3ccccc3c(=O)n2-c2cccnc2)cc1 | inconclusive: 31.8%
2 | c1csc(CN2CCNCC2)c1 | inactive: 0.0931%
3 | CCN(CC)c1ccc(CNCCc2ccc(F)cc2)cc1 | inactive: -3.65%
4 | CCOc1ccc(C2C(C#N)=C(N)Oc3c2c(=O)oc2ccccc32)cc1 (centres undefined) | inconclusive: 46.3%
5 | CC(C)CN(CC(C)C)C(=O)C1C2c3ccccc3C(c3ccccc32)C1C(=O)O (centres undefined) | inactive: 4.42%
6 | Cc1cc(C)c(-n2c(O)c(/C=N/N3CCCCC3c3cccnc3)c(=O)[nH]c2=O)c(C)c1 (centres undefined) | inactive: 0.0916%
7 | Cc1cccc(OP(=O)(Oc2ccccc2)OC(c2ccccc2)C(F)(F)F)c1 (centres undefined) | inconclusive: 35.3%
8 | Nc1cc(N2CCNCC2)c([N+](=O)[O-])cc1Cl | inactive: -1.32%
9 | CC(Cc1ccccc1Sc1ccccc1O)N(C)C (centres undefined) | inactive: 10.6%
10 | NCC(O)c1cc(O)c(O)cc1F (centres undefined) | inactive: 3.43%
11 | Cc1nc2ccccc2c(=O)n1-c1cccc(C(F)(F)F)c1 | inactive: 2.14%
12 | COc1ccc(C(C)=O)cc1CN1CC=C(c2ccccc2)CC1 | inactive: 7.83%
13 | CC(C)CCNC(=O)c1c(N)n(CC2CCCO2)c2nc3ccccc3nc12 (centres undefined) | inconclusive: 55.7%
14 | COP(=O)(/C=C(\Cl)c1ccccc1)/C=C(\Cl)c1ccccc1 | inconclusive: 42%
15 | COC(=O)C1=C(c2ccc(OCc3ccccc3)cc2)C[C@@H]2CC[C@H]1N2C(=O)NCc1ccc(OC)c(OC)c1 | inconclusive: 56.4%
16 | COc1ccc(/C=C2/C(=O)NC(=O)N(c3ccccc3)C2=O)cc1CN1C(=O)c2ccccc2C1=O | inactive: 0.614%
17 | Cc1ccc(OP(=O)(NCc2ccccc2)Oc2ccc(C)cc2)cc1 | inconclusive: 53.2%
18 | O=C(Cc1ccc(Cl)c(Cl)c1)NCC1(N2CCOCC2)CCCCC1 | inconclusive: 33.1%
19 | COC(=O)C(O)(c1ccc(NC(=O)Oc2ccccc2)cc1)C(F)(F)F (centres undefined) | inactive: 0.0544%
20 | COc1ccc(CCNCc2cccn2C)cc1OC | inactive: -2.79%
21 | NS(=O)(=O)c1ccc(N=Cc2c(O)n(C3CCCCC3)c(=O)n(C3CCCCC3)c2=O)cc1 | inconclusive: 42.3%
22 | OC[C@H]1O[C@@H](n2cnc3cc(Cl)c(Cl)cc32)[C@H](O)[C@@H]1O | inactive: 0.217%
23 | C=CCN1C(=O)C2(C(C(=O)OCC)=C(N)Oc3ccccc32)c2c1c1ccccc1oc2=O (centres undefined) | inactive: 11.5%

Row | SMILES | activation
24 | CC1(C)C(C(=O)N2CCN(c3ccc(Cl)cc3)CC2)C1(C)C | inconclusive: 66.3%
25 | O=C(COc1ccc(Br)cc1)N1CCN(Cc2ccc3c(c2)OCO3)CC1 | inconclusive: 56.1%
26 | COC(=O)C1=C(c2ccc(F)cc2OCc2ccccc2)C[C@@H]2CC[C@H]1N2C(=O)NCc1ccc(OC)c(OC)c1 | inconclusive: 60.3%
27 | Cc1ccc([N+](=O)[O-])cc1 | inactive: 2.16%
28 | CCN1C(=O)C(=C2C=C(C)N(Cc3ccco3)C(C)=C2)C(=O)N(CC)C1=S | inactive: 25.7%
29 | COc1ccc(OC)c(NP(=O)(Oc2ccc(Cl)cc2)Oc2ccc(Cl)cc2)c1 | inconclusive: 32.3%
30 | O=C(Cc1ccccc1)N1CCN(CC2CC3C=CC2C3)CC1 (centres undefined) | inconclusive: 32.2%
31 | O=C(c1ccc(Cl)cc1)C1CCCN(Cc2ccc3nonc3c2)C1 (centres undefined) | inconclusive: 38.5%
32 | O=P(Oc1ccccc1)(Oc1ccccc1)c1ccccc1 | inconclusive: 37.8%
33 | O=c1[nH]c(=S)n(C2CC2)c(O)c1/C=N/Nc1ccccc1 | inactive: -4.43%
34 | COC(=O)C1=C(c2ccc(F)cc2F)C[C@@H]2CC[C@H]1N2C(=O)N1CCC(C)CC1 | inconclusive: 40%
35 | Cc1ccc(OCC(=O)N2CCN(Cc3ccc([N+](=O)[O-])cc3)CC2)cc1 | inconclusive: 41.4%
36 | C=C1C(=O)O[C@@H]2C[C@@H](C)[C@@H]3C=CC(=O)[C@@]3(C)[C@@H](O)[C@H]12 | inactive: -3.51%
37 | CC(C)Cc1nc(N2CCNCC2)c(C#N)c2c1CCC2 | inconclusive: 59.4%
38 | C/C(=N\NC(=O)c1ccccc1O)c1c(O)n(C2CCCCC2)c(=O)[nH]c1=O | inconclusive: 60.5%
39 | O=C(c1ccc(C(F)(F)F)cc1)C1CCCN(C2CCSCC2)C1 (centres undefined) | inconclusive: 43.7%
40 | CN(C)C(=O)Oc1ccc(C(=O)c2ccccc2)cc1 | inconclusive: 60.9%
41 | BrCC1C[n+]2c(SCc3ccccc3)nc3sc4c(c3c2O1)CCCC4 (centres undefined) | inactive: 16.7%
42 | CCOc1ccc(CN2CCCC(C(=O)c3ccccc3OC)C2)cc1 (centres undefined) | inactive: 18.5%
43 | O=P(Nc1cccnc1)(Oc1ccccc1)Oc1ccccc1 | inconclusive: 47.9%
44 | CCN(CC)S(=O)(=O)c1cc(NC(=O)C(C)N2CC=C(c3ccccc3)CC2)ccc1C (centres undefined) | inactive: 12.9%
45 | COc1ccccc1N1CCN(Cc2cc(C)c(C)cc2O)CC1 | inconclusive: 36.3%
46 | C[C@H](O)[C@H]1CC[C@H]2[C@@H]3CCC4=CC(=O)CC[C@]4(C)[C@H]3CC[C@]12C | inactive: 4.94%

Row | SMILES | activation
47 | O=C(c1cc2c(s1)CCCCCC2)N1CCC2(CC1)OCCO2 | inconclusive: 45.6%
48 | CC(C)c1ccc(N=Nc2c(O)[nH]c(=O)[nH]c2=O)cc1 | inactive: 11.3%
49 | CCOP(=O)(OCC)Oc1cc(C)c(N(C)C)c(C)c1 | inconclusive: 65.9%
50 | O=C(COC(=O)Cc1ccccc1)Nc1ccc(SC(F)F)cc1 | inconclusive: 35.3%
51 | C[n+]1ccc(-c2ccccc2)c2ccccc21 | inactive: -4.33%
52 | CCN(CC)C(=O)c1ccc(NC(=O)c2cccc(S(=O)(=O)N3CCN(Cc4ccccc4)CC3)c2)cc1 | inactive: -2.47%
53 | O=C(C(=O)N1CCOCC1)c1cn(Cc2ccccc2F)c2ccccc12 | inconclusive: 39.4%
54 | Cc1ccc(NP(=O)(c2ccccc2)c2nc3ccccc3s2)cc1 (centres undefined) | inconclusive: 32.7%
55 | O=[N+]([O-])c1ccc(N2CCCCC2)c2ncccc12 | inactive: 3.29%
56 | Cc1ccc(S(=O)(=O)N(C)CCCC(=O)N2CCN(c3ccccn3)CC2)cc1 | inactive: -2.32%
57 | CNC(=O)Oc1cccc(-c2cn3cc(Cl)ccc3n2)c1 | inconclusive: 33.5%
58 | CCOC(=O)C1(CCOc2ccccc2)CCN(Cc2ccc(C)s2)CC1 | inactive: 12.1%
59 | Cc1cc([N+](=O)[O-])c2ccccc2[n+]1[O-] | inactive: 1.32%
60 | COC(=O)C1=C(c2ccc(C(C)=O)cc2)C[C@@H]2CC[C@H]1N2C | inactive: -3.58%
61 | C=CCn1c(O)c(C(C)=NCCc2ccccc2)c(=O)[nH]c1=O | inconclusive: 42.8%
62 | O=CNc1ccc(OP(=O)(Oc2ccccc2)Oc2ccccc2)cc1 | inconclusive: 44.7%
63 | COc1ccc2[nH]cc(CCN=C(N)N)c2c1 | inactive: -6.41%
64 | Cc1ccc(-c2cc(C(F)F)n3ncc(C(=O)N4CCC5(CC4)OCCO5)c3n2)cc1 | inconclusive: 44.6%
65 | Cc1ccc(Cl)cc1N1CCN(CCN)CC1 | inactive: 2.4%
66 | O=c1nc(/C=C/c2ccc(Cl)cc2Cl)cc(C(F)(F)F)[nH]1 | inactive: -0.667%
67 | Cc1cccc(-c2nc3ccc(C(=O)N4CCC5(CC4)OCCO5)cc3nc2-c2cccc(C)c2)c1 | inconclusive: 37.8%
68 | N[C@@H](Cc1ccc(N(CCCl)CCCl)cc1)C(=O)O | inactive: 0.297%
69 | O=C(c1cc2cc(Cl)ccc2[nH]1)N1CCC2(CC1)OCCO2 | inconclusive: 34.2%

Row | SMILES | activation
70 | Cc1cccc(N2CCc3c2nc2ccccc2c3N)c1 | inactive: -2.2% and inactive: 13.6%
71 | Cc1cccc(OP(=O)(Nc2cccnc2)Oc2cccc(C)c2)c1 | inconclusive: 52%
72 | Cc1ccc(C2CC(=O)C(C=NCCN3CCN(C(=O)Cc4ccccc4)CC3)=C(O)C2)cc1 (centres undefined) | inactive: 0.127%
73 | COC(=O)C1=C(c2ccc(OC(F)(F)F)cc2)C[C@@H]2CC[C@H]1N2C(=O)N1CCCCC1 | inconclusive: 42%
74 | CCc1ccc(CNCCc2ccc(F)cc2)cc1 | inactive: -5.3%
75 | O=C(COc1ccccc1)N1CCN(CC2CC3C=CC2C3)CC1 (centres undefined) | inconclusive: 35%
76 | Oc1ccc(C(=C(Cl)Cl)c2ccc(O)cc2)cc1 | inactive: -0.89%
77 | COc1ccc2c(c1)CC1(CN2C)C(=O)NC(=O)N(CCc2ccccc2)C1=O (centres undefined) | inactive: 2.1%
78 | CC(C)COC(=O)c1ccccc1C(=O)OCC(C)C | inconclusive: 40.4%
79 | CCc1ccc(N2C(=O)NC(=O)/C(=C\C=C\c3ccco3)C2=O)cc1 | inactive: 20.7%
80 | Cc1c(C(=O)N2CCC3(CC2)OCCO3)oc2ccc(S(=O)(=O)N3CCCCC3)cc12 | inconclusive: 30.1%
81 | COc1ccc(CN2CCNCC2)c(OC)c1OC | inconclusive: 35.5%
82 | CCCNC(=O)N1[C@H]2CC[C@@H]1C(C(=O)OC)=C(c1ccc(F)cc1OCc1ccccc1)C2 | inconclusive: 58.7%
83 | O=[N+]([O-])c1ccccc1Cl | inactive: -2.67%
84 | Cc1ccc(S(=O)(=O)N(C)C/N=C(\N)N[N+](=O)[O-])cc1 | inactive: 0.29%
85 | C=CCn1c(O)c(C(C)=NCCCn2ccnc2)c(=O)[nH]c1=O | inactive: 1.05%
86 | CN(C)CCCNCC(=O)Nc1ccc(Cl)cc1C(=O)c1ccccc1 | inactive: -2.91%
87 | Cc1cc(S(=O)(=O)NCC(C)C)ccc1OCC(=O)N1CCN(Cc2ccccc2)CC1 | inactive: 1.88%
88 | Cc1ccccc1OCCCn1cc(C(=O)C(=O)N2CCOCC2)c2ccccc21 | inconclusive: 51.1%
89 | O=P(Nc1cccc(Cl)c1)(Oc1ccccc1)Oc1ccccc1 | inconclusive: 32.3%

Single values from above.
Cc1ccc(C2CC(=O)C(C=NCCN3CCN(C(=O)Cc4ccccc4)CC3)=C(O)C2)cc1 (centres undefined) | activation: inactive: 0.127%
Cc1ccccc1OCCCn1cc(C(=O)C(=O)N2CCOCC2)c2ccccc21 | activation: inconclusive: 51.1%
CN(C)CCCNCC(=O)Nc1ccc(Cl)cc1C(=O)c1ccccc1 | activation: inactive: -2.91%
Cc1cccc(OP(=O)(Nc2cccnc2)Oc2cccc(C)c2)c1 | activation: inconclusive: 52%
COC(=O)C1=C(c2ccc(OC(F)(F)F)cc2)C[C@@H]2CC[C@H]1N2C(=O)N1CCCCC1 | activation: inconclusive: 42%
